{
  "source": "patent US4525360A",
  "about": "“Anti-psychotic phenylindene derivatives and acid addition salts thereof” (Kefalas A/S, priority 1982, dated 1985)",
  "tested_on": "5-HT, rat fundus strip",
  "test": "5-HT antagonism, rat fundus strip",
  "settings": "10 min, read-out: 5HT rat-fundus-strip IC50",
  "method": "5-HT antagonism, rat fundus strip\n5-hydroxytryptamine (5-HT).\nRats are killed by a blow on the head and exsanguinated. The stomach fundus is removed and carefully cleaned with Krebs solution at 30° C. The fundus is then stretched over a rounded end of a plastic rod about the thickness of a pencil, whereby the longitudinal direction of the muscle fibers is visible. The fundus is halved by carefully cutting in the central line and in the direction of these fibres. Along this incision two strips with a length of 15-25 mm and with width 1.5-2.5 mm are cut, one from each half of the fundus. The mucosa is then carefully removed. A thread is attached to each end of a strip. One thread is fixed to a pin in the bottom of the organ bath and the other thread is fixed to an isotonic transducer. The strip is kept under a tone of 1.5 to 2.0 g. […] Concentration response curves to 5-HT are obtained by adding 5-HT to the bath in increasing concentrations (0.1 ml of 10^-9 M resulting in 1.0×10^-11 M in the bath, 0.2 ml of 10^-9 M resulting in 3.0×10^-11 M, 0.1 ml of 10^-8 M resulting in about 1×10^-10 M, 0.2 ml of 10^-8 M resulting in about 3×10^-10 M--0.2 ml of 10^-4 resulting in about 3×10^-6 M in the bath). […] From the control concentration effect curve the Km for 5-HT is calculated.\nThe results are recorded as mean percentage inhibition. […]",
  "data": [
    {"smiles": "OCCN1CCN(CCCN2c3ccccc3Sc3ccc(C(F)(F)F)cc32)CC1", "note": "[Fluphenazine, reference compound]", "values": [
      {"measurement": "IC50", "value": "> 5", "unit": "µM"}
    ]}
  ]
}
